PubChem BioAssay AID1053208 – Peter MacCallum Cancer Centre – 2014

Aim: 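Genes whose silencing cuts survival of bone tumour cells only with doxorubicin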 (primary screen)
Cells: mouse osteosarcoma cells, early-passage culture from an engineered mouse model of fibroblastic bone tumour
Knock-down reagent: siRNA pool against mouse genes, 40 nM
Timing: about 120 h (48 h before drug, then 72 h with drug)
Conditions: doxorubicin 100 nM for 72 h, roughly 30-40% inhibitory dose
Read-out: 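Viability read as ATP luminescence after 72 h of 100 nM doxorubicin or none, duplicate wells averaged, scaled to non-targeting siRNA, then expressed as robust z-scores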
Scale: viability z-score with doxorubicin: higher = more viable cells under doxorubicin; viability z-score without drug: higher = more viable cells with knock-down alone; z-score of drug to no-drug ratio: higher = less drug sensitisation by knock-down
Call rule: 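Called active if knock-down leaves viability unchanged without drug (z within -2 to 2) but lowers it with doxorubicin (z at or under -2)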
The deposit covers about 17,000 reagents; below is a part drawn at random. Over the whole deposit, 788 (4.7%) were called active. 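Calls rest on z-score classes alone; an extra cut-off of viability at most 70% of control was not applied to them.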 Entries without a mark were called inactive. Not all columns of the deposit are shown. No sequences are given here.

combined z-score class	viability z-score with doxorubicin	viability z-score without drug	z-score of drug to no-drug ratio	gene symbol
no change with or without drug	0.34	0.84	-0.11	Hbb-y (hemoglobin Y, beta-like embryonic chain)
no change with or without drug	0.9	0	1.01	Nsmaf
no change with or without drug	-1.24	-0.17	-1.12	Sh2d4b (SH2 domain containing 4B)
no change with or without drug	0.45	0	0.56	Cnot8 (CCR4-NOT transcription complex, subunit 8)
no change with or without drug	0.45	-0.51	1.01	Slc25a15
high cell count without drug only	1.57	2.36	0.11	Lmbrd1 (LMBR1 domain containing 1)
no change with or without drug	-1.35	-0.84	-0.79	Med20 (mediator complex subunit 20)
no change with or without drug	0.45	0.51	0.22	Wdr25 (WD repeat domain 25)
no change with or without drug	-0.45	0.51	-0.67	Relt (RELT tumor necrosis factor receptor)
no change with or without drug	0.11	-1.69	1.57	Slc17a4
no change with or without drug	1.46	1.01	0.9	Fbxl4 (F-box and leucine-rich repeat protein 4)
no change with or without drug	-0.22	-0.51	0.22	Cyp2a4 (cytochrome P450, family 2, subfamily a, polypeptide 4)
no change with or without drug	0	1.01	-0.56	Ppfia4
no change with or without drug	0	-0.17	0.22	Or5b119 (olfactory receptor family 5 subfamily B member 119)
no change with or without drug	1.35	1.35	0.56	Plbd2 (phospholipase B domain containing 2)
no change with or without drug	-0.45	-1.52	0.79	Pes1 (pescadillo ribosomal biogenesis factor 1)
high cell count with and without drug	2.02	2.19	0.67	Emp1 (epithelial membrane protein 1)
high cell count without drug only	0.34	3.54	-1.57	Or8b44 (olfactory receptor family 8 subfamily B member 44)
no change with or without drug	1.46	1.52	0.56	Crygs (crystallin, gamma S)
no change with or without drug	0.9	-0.51	1.46	Hmgb3 (high mobility group box 3)
